The record followed here is paper PMC8134555.

These are yes or no findings as the source states them, for the method shown. In cells and extracts the contact can be indirect. Some entries that bind do so weakly or less than the wild type.

In the experiment the target is T1, macrophage migration inhibitory factor (MIF), endogenous (human (endogenous in MDA-MB-231 and HeLa)) (UniProt P14174).
T1 sequence: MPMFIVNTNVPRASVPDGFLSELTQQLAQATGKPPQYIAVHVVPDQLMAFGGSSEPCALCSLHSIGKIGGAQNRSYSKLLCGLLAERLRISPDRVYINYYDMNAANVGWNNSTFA
In words: co-IP; endogenous proteins, MDA-MB-231 lysate in NETN buffer (150 mM NaCl, 1 mM EDTA, 10 mM Tris-HCl pH 8.0, 0.5% IGEPAL), antibodies to MIF or PCNA with protein A/G magnetic beads overnight at 4 °C, immunoblot; also with or without Olaparib (5 uM, 2 h) after double thymidine synchronisation (more MIF-PCNA with Olaparib). On the technique in general: A western blot detects proteins with antibodies after separation by electrophoresis.

B1: Mus81, endogenous (protein, UniProt Q96NY9 1-551)
chain: MAAPVRLGRKRPLPACPNPLFVRWLTEWRDEATRSRRRTRFVFQKALRSLRRYPLPLRSGKEAKILQHFGDGLCRMLDERLQRHRTSGGDHAPDSPSGENSPAPQGRLAEVQDSSMPVPAQPKAGGSGSYWPARHSGARVILLVLYREHLNPNGHHFLTKEELLQRCAQKSPRVAPGSARPWPALRSLLHRNLVLRTHQPARYSLTPEGLELAQKLAESEGLSLLNVGIGPKEPPGEETAVPGAASAELASEAGVQQQPLELRPGEYRVLLCVDIGETRGGGHRPELLRELQRLHVTHTVRKLHVGDFVWVAQETNPRDPANPGELVLDHIVERKRLDDLCSSIIDGRFREQKFRLKRCGLERRVYLVEEHGSVHNLSLPESTLLQAVTNTQVIDGFFVKRTADIKESAAYLALLTRGLQRLYQGHTLRSRPWGTPGNPESGAMTSPNPLCSLLTFSDFNAGAIKNKAQSVREVFARQLMQVRGVSGEKAAALVDRYSTPASLLAAYDACATPKEQETLLSTIKCGRLQRNLGPALSRTLSQLYCSYGPLT
B1: the binding entry was “binds”.
